Test results published in publication PMC11524583, “Neurons enhance blood–brain barrier function via upregulating claudin-5 and VE-cadherin expression due to glial cell line-derived neurotrophic factor secretion” (eLife, 2024).
Marks after values point to notes of the source that are not given here.

Assays:
[1] = in vitro; conditions: human
[2] = test system: triple co-culture BBB model (hCMEC/D3, U251 and SH-SY5Y cells); conditions: human
[3] = in vitro; conditions: human; remark: listed apart in the source
[4] = test system: hCMEC/D3 mono-culture BBB model; conditions: human
[5] = unbound fraction in brain; ref Di et al., 2011; cited from earlier work
[6] = in situ brain perfusion in rodents; published permeability multiplied by VSA 150 cm^2/g; ref Summerfield et al., 2007; cited from earlier work

Papp A→B ([1]; Papp Mean): 14.5 ×10⁻⁶ cm/s
Papp A→B ([1]; Papp, Triple): 14.5 ± 0.84 ×10⁻⁶ cm/s
PS [2]: 1860.43 µL/min/g
PSPre, Triple [2]: 1860.43 µL/min/g
Papp A→B ([3]; Papp (individual replicate)): 22.6 ×10⁻⁶ cm/s
Papp A→B ([3]; Papp Mean): 20.9 ×10⁻⁶ cm/s
Papp A→B ([3]; Papp, Mono): 20.9 ± 0.75 ×10⁻⁶ cm/s
PS [4]: 2688.43 µL/min/g
PSPre, Mono [4]: 2688.43 µL/min/g
Structure (SMILES): COc1cc2c(cc1OC)C(=O)C(CC1CCN(Cc3ccccc3)CC1)C2 (centres unmarked) [Donepezil]
fu, brain [5]: 0.07^††
PSObs [6]: 1581.30^† μl/min/g
